Measured values from the supplement of paper PMC6078165.
The reference is the same well before dosing, and untreated signal decays as well.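 Cells used are triple-negative breast cancer lines, either basal-like or mesenchymal-like, grown in the absence of fibroblasts. Lower red signal means mitochondrial integrity is lost, a surrogate for apoptosis.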

Legend:
Experiment in all cases: relative JC-1 red fluorescence (viability) vs pre-drug, monoculture (fraction); higher = more viable cancer cells
Settings in all cases: coculture fibroblast: none (monoculture)
BT20 = system: BT20
Protocol: (§1)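 JC-1 labelled TNBC cells grown in monoculture (density kept equal with unlabelled cancer cells) in 384-well plates in FluoroBrite medium, treated with one of 42 anticancer drugs at 0.1, 1, 10 or 100 uM. JC-1 red fluorescence (mitochondrial integrity, surrogate of apoptotic death) was read by plate reader every 8 h for 72 h. Values are normalised to each well's pre-drug value, with background from alamethicin. The stock of one drug was tenfold lower, so its dose labels may be too high. Monoculture values are repeated alongside each fibroblast plate and are averaged here.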

MDAMB436 = system: MDAMB436
Protocol: as §1

MDAMB468 = system: MDAMB468
Protocol: as §1

MDAMB231 = system: MDAMB231
Protocol: as §1

O=C(O)C1(C(=O)O)CCC1.[NH2-].[NH2-].[Pt+2] [Carboplatin]
relative JC-1 red fluorescence
Settings | 8 h | 16 h | 24 h | 32 h | 40 h | 48 h | 56 h | 64 h | 72 h
BT20, 0.1 µM | 0.938 | 0.855 | 0.753 | 0.674 | 0.616 | 0.587 | 0.556 | 0.54 | 0.524
BT20, 1 µM | 0.922 | 0.851 | 0.846 | 0.763 | 0.721 | 0.697 | 0.66803 | 0.662 | 0.653
BT20, 10 µM | 0.956 | 0.842 | 0.806 | 0.729 | 0.687 | 0.673 | 0.64 | 0.623 | 0.607
BT20, 100 µM | 0.881 | 0.833 | 0.825 | 0.759 | 0.706 | 0.692 | 0.676 | 0.672 | 0.68
MDAMB231, 0.1 µM | 0.715 | 0.692 | 0.6055 | 0.5892 | 0.547 | 0.529 | 0.492 | 0.51 | 0.501
MDAMB231, 1 µM | 0.666 | 0.626 | 0.626 | 0.558 | 0.531 | 0.517 | 0.501 | 0.516 | 0.5226
MDAMB231, 10 µM | 0.771 | 0.807 | 0.619 | 0.666 | 0.605 | 0.568 | 0.518 | 0.513 | 0.486
MDAMB231, 100 µM | 0.6556 | 0.633 | 0.634 | 0.582 | 0.539 | 0.543 | 0.533 | 0.563 | 0.573
MDAMB436, 0.1 µM | 0.8308 | 0.72 | 0.6943 | 0.6348 | 0.611 | 0.594 | 0.571 | 0.557 | 0.558
MDAMB436, 1 µM | 0.793 | 0.743 | 0.734 | 0.678 | 0.673 | 0.662 | 0.657 | 0.651 | 0.666
MDAMB436, 10 µM | 0.8537 | 0.7555 | 0.732 | 0.666 | 0.651 | 0.637 | 0.627 | 0.615 | 0.618
MDAMB436, 100 µM | 0.75905 | 0.812 | 0.856 | 0.853 | 0.866 | 0.895 | 0.923 | 0.904 | 0.845
MDAMB468, 0.1 µM | 0.895 | 0.836 | 0.773 | 0.711 | 0.652 | 0.633 | 0.598 | 0.57 | 0.557
MDAMB468, 1 µM | 0.8556 | 0.7409 | 0.7336 | 0.6912 | 0.641 | 0.6427 | 0.625 | 0.6156 | 0.599
MDAMB468, 10 µM | 0.86487 | 0.797 | 0.7578 | 0.6928 | 0.6546 | 0.6315 | 0.595 | 0.567 | 0.554
MDAMB468, 100 µM | 0.827 | 0.778 | 0.739 | 0.619 | 0.549 | 0.533 | 0.496 | 0.482 | 0.465

CCc1c2c(nc3ccc(OC(=O)N4CCC(N5CCCCC5)CC4)cc13)-c1cc3c(c(=O)n1C2)COC(=O)[C@]3(O)CC [Irinotecan]
relative JC-1 red fluorescence
Settings | 8 h | 16 h | 24 h | 32 h | 40 h | 48 h | 56 h | 64 h | 72 h
BT20, 0.1 µM | 0.96 | 0.898 | 0.862 | 0.779 | 0.744 | 0.729 | 0.702 | 0.697 | 0.687
BT20, 1 µM | 0.895 | 0.859 | 0.859 | 0.796 | 0.784 | 0.794 | 0.783 | 0.784 | 0.785
BT20, 10 µM | 0.963 | 0.8831 | 0.885 | 0.816 | 0.79 | 0.792 | 0.774 | 0.784 | 0.788
BT20, 100 µM | 0.929 | 0.9349 | 0.963 | 0.8984 | 0.878 | 0.8908 | 0.877 | 0.8833 | 0.8922
MDAMB231, 0.1 µM | 0.696 | 0.6428 | 0.6109 | 0.5534 | 0.5124 | 0.498 | 0.4844 | 0.5007 | 0.4977
MDAMB231, 1 µM | 0.71 | 0.67 | 0.662 | 0.6 | 0.5641 | 0.56 | 0.535 | 0.559 | 0.549
MDAMB231, 10 µM | 0.7646 | 0.742 | 0.686 | 0.647 | 0.611 | 0.599 | 0.572 | 0.599 | 0.594
MDAMB231, 100 µM | 0.79 | 0.8462 | 0.774 | 0.8443 | 0.814 | 0.8 | 0.768 | 0.77 | 0.762
MDAMB436, 0.1 µM | 0.8412 | 0.7243 | 0.7341 | 0.6715 | 0.659 | 0.642 | 0.625 | 0.631 | 0.631
MDAMB436, 1 µM | 0.8067 | 0.7554 | 0.752 | 0.712 | 0.695 | 0.687 | 0.685 | 0.684 | 0.688
MDAMB436, 10 µM | 0.884 | 0.781 | 0.822 | 0.778 | 0.766 | 0.76 | 0.762 | 0.752 | 0.761
MDAMB436, 100 µM | 0.838 | 0.891 | 0.9446 | 0.931 | 0.962 | 0.984 | 0.781 | 0.835 | 0.816
MDAMB468, 0.1 µM | 0.90536 | 0.834 | 0.74978 | 0.679 | 0.647 | 0.613 | 0.58 | 0.562 | 0.543
MDAMB468, 1 µM | 0.868 | 0.754 | 0.748 | 0.717 | 0.674 | 0.681 | 0.65 | 0.643 | 0.641
MDAMB468, 10 µM | 0.92 | 0.875 | 0.819 | 0.754 | 0.717 | 0.685 | 0.636 | 0.595 | 0.574
MDAMB468, 100 µM | 0.8575 | 0.85 | 0.848 | 0.794 | 0.76 | 0.764 | 0.74 | 0.722 | 0.709

COc1cc([C@@H]2c3cc4c(cc3[C@@H](O[C@@H]3O[C@@H]5CO[C@@H](c6cccs6)O[C@H]5[C@H](O)[C@H]3O)[C@H]3COC(=O)[C@H]23)OCO4)cc(OC)c1O [Teniposide]
relative JC-1 red fluorescence
Settings | 8 h | 16 h | 24 h | 32 h | 40 h | 48 h | 56 h | 64 h | 72 h
BT20, 0.1 µM | 0.9288 | 0.945 | 0.843 | 0.828 | 0.822 | 0.9174 | 0.842 | 0.908 | 0.86
BT20, 1 µM | 0.918 | 0.8785 | 0.905 | 0.839 | 0.842 | 0.735 | 0.796 | 0.766 | 0.81
BT20, 10 µM | 0.93 | 0.8899 | 0.909 | 0.824 | 0.815 | 0.826 | 0.823 | 0.837 | 0.834
BT20, 100 µM | 0.932 | 0.917 | 0.89 | 0.792 | 0.858 | 0.846 | 0.802 | 0.8929 | 0.8885
MDAMB231, 0.1 µM | 0.637 | 0.59 | 0.604 | 0.532 | 0.493 | 0.495 | 0.486 | 0.52309 | 0.5423
MDAMB231, 1 µM | 0.653 | 0.629 | 0.629 | 0.586 | 0.55 | 0.554 | 0.547 | 0.583 | 0.592
MDAMB231, 10 µM | 0.713 | 0.682 | 0.715 | 0.71 | 0.669 | 0.676 | 0.673 | 0.724 | 0.736
MDAMB231, 100 µM | 0.7747 | 0.787 | 0.763 | 0.822 | 0.804 | 0.8103 | 0.83 | 0.868 | 0.877
MDAMB436, 0.1 µM | 0.805 | 0.775 | 0.797 | 0.771 | 0.773 | 0.786 | 0.787 | 0.798 | 0.817
MDAMB436, 1 µM | 0.773 | 0.786 | 0.8 | 0.768 | 0.765 | 0.773 | 0.784 | 0.789 | 0.803
MDAMB436, 10 µM | 0.8323 | 0.834 | 0.845 | 0.793 | 0.804 | 0.808 | 0.8 | 0.806 | 0.822
MDAMB436, 100 µM | 0.835 | 0.8998 | 0.964 | 0.976 | 0.877 | 0.852 | 0.8036 | 0.794 | 0.849
MDAMB468, 0.1 µM | 0.84 | 0.729 | 0.73 | 0.658 | 0.625 | 0.614 | 0.57 | 0.551 | 0.555
MDAMB468, 1 µM | 0.848 | 0.747 | 0.722 | 0.626 | 0.586 | 0.576 | 0.5479 | 0.529 | 0.5174
MDAMB468, 10 µM | 0.874 | 0.787 | 0.739 | 0.655 | 0.598 | 0.568 | 0.518 | 0.507 | 0.499
MDAMB468, 100 µM | 0.9269 | 0.919 | 0.921 | 0.843 | 0.769 | 0.764 | 0.721 | 0.704 | 0.701
